Data reported in the supplement of paper PMC4635364.
Where a name gives a salt, the structure may show the parent alone. Some of the results follow. Repeats in this data set agree poorly, so a single value says little.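 Cells: ReNCell VM human fetal ventral-midbrain neural progenitors, differentiated mitogen-free. Blinded raters compared doublecortin-stained (early neurons) or tyrosine hydroxylase-stained (dopaminergic neurons) images with untreated wells, where 0 means no change. After repeats and both raters were averaged, compounds scoring 2 or above became hits for retesting.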

tested on: ReNCell VM; assay: neuronal differentiation score (DCX+ cell fraction vs untreated, manual image score) (score (-3 to 3)); higher = more neuronal differentiation; conditions: library: LOPAC; 2 uM; 2 weeks

SMILES | neuronal differentiation score
COc1ccc2c(c1OC)C(=O)OC2C1c2cc3c(cc2CCN1C)OCO3 (single isomer, unassigned; (+)) [(+)-Hydrastine] | inactive: 0
CNC(=O)Oc1ccc2c(c1)[C@]1(C)CCN(C)[C@@H]1N2C [(-)-Physostigmine] | inactive: 0
NCC(O)c1cc(O)c(O)cc1F (stereo not drawn) [6-Fluoronorepinephrine hydrochloride] | inactive: 0
N=C(NCCC[C@H](N)C(=O)O)N[N+](=O)[O-] [NG-Nitro-L-arginine] | inactive: 0
c1ccc(C2(c3ccccc3)CC2C2=NCCN2)cc1 (stereo not drawn) [Cibenzoline succinate] | inactive: 0
CC(C)NP(=O)(NC(C)C)OP(=O)(NC(C)C)NC(C)C [Tetraisopropyl pyrophosphoramide] | inactive: 0

A few values from the list:
In neuronal differentiation score, N=C(NCCC[C@H](N)C(=O)O)N[N+](=O)[O-] [NG-Nitro-L-arginine] is listed with inactive: 0
In neuronal differentiation score, NCC(O)c1cc(O)c(O)cc1F (stereo not drawn) [6-Fluoronorepinephrine hydrochloride] is listed with inactive: 0

same assay, conditions: library: Natural; 2 uM; 2 weeks

SMILES | neuronal differentiation score
CC(=O)OC[C@]12C[C@H](OC(=O)CC(C)C)C(C)=C[C@H]1O[C@@H]1[C@H](O)[C@@H](OC(C)=O)[C@@]2(C)[C@]12CO2 [t2 toxin] | inactive: 0
C/C=C1/CN2CC[C@]34C(=C(C=O)C1CC23)Nc1c(O)cccc14 (stereo partly drawn) [vincanidine] | inactive: 1
C1=C2CCCN[C@H]2[C@@H]2C[C@H]1[C@H]1CCCCN1C2 [aloperine] | inactive: 0

same assay, conditions: library: Prestwick; 2 uM; 2 weeks

SMILES | neuronal differentiation score
CCC1(c2ccc(N)cc2)CCC(=O)NC1=O (stereo not drawn) [Glutethimide, para-amino] | inactive: 0
C[N+]12CCC(CC1)C(OC(=O)C(O)(c1ccccc1)c1ccccc1)C2 (stereo not drawn) [Clidinium bromide] | inactive: 0
CCCN1C[C@H](CSC)C[C@@H]2c3cccc4[nH]cc(c34)C[C@H]21 [Pergolide mesylate] | inactive: 0
CCN(C)C(=O)Oc1cccc([C@H](C)N(C)C)c1 [Rivastigmine] | inactive: 0
CCN[C@@H](C)Cc1cccc(C(F)(F)F)c1 [Dexfenfluramine hydrochloride] | inactive: 0
O[C@@H]1CCCC[C@H]1N1CCC(c2ccccc2)CC1 [L(-)-vesamicol hydrochloride] | inactive: 0

same assay, conditions: library: Spectrum; 2 uM; 2 weeks

SMILES | neuronal differentiation score
Oc1noc2c1CCNC2 | inactive: 0
O=C1C=C2C(=CCOC2O)O1 (stereo not drawn) | inactive: 0
CC(C)(O)C(Cl)(Cl)Cl | inactive: 0
CC(=O)C1CCC2C3CCC4C[C@H](O)CCC4(C)C3C[C@H](O)C12C (stereo partly drawn) [DIHYDROXY (3alpha,12alpha)PREGNAN-20-ONE] | inactive: 0
COC(=O)C1=CCCN(C)C1 | inactive: 0
O=C([O-])Cc1ccccc1.[Na+] | inactive: 1
CCOC(=O)c1cncn1[C@H](C)c1ccccc1 | inactive: 0
CC[C@H]1CN2CCc3cc(OC)c(OC)cc3[C@@H]2C[C@@H]1C[C@H]1NCCc2cc(OC)c(OC)cc21 | inactive: 0
O=C1C2CC=CCC2C(=O)N1SC(Cl)(Cl)Cl (stereo not drawn) | inactive: 0
COc1cc2c(cc1OC)[C@@]13CCN4CC5=CCO[C@H]6CC(=O)N2[C@H]1[C@H]6[C@H]5C[C@H]43 | inactive: 0
Cc1[nH]c2ccccc2c1CN(C)C | inactive: 0
CC[C@@]1(O)C[C@H](O[C@H]2C[C@H](N(C)C)[C@H](O)[C@H](C)O2)c2c(cc3c(c2O)C(=O)c2c(O)ccc(O)c2C3=O)[C@H]1C(=O)OC | inactive: 0
NCC(=O)c1ccccc1 | inactive: 0
O=C(O)CCCO | inactive: 0
C[N+]1(C)[C@@H]2C[C@@H](OC(=O)[C@H](CO)c3ccccc3)C[C@H]1[C@@H]1O[C@@H]12 | inactive: -1
CC[C@@]1(O)C(=O)OCc2c1cc1n(c2=O)Cc2cc3ccccc3nc2-1 | inactive: 0
C=CC[C@]1(O)CC[C@H]2[C@@H]3CCC4=CC(=O)CCC4=C3C=C[C@@]21C | inactive: 0

same assay, conditions: library: Tocriscreen; 2 uM; 2 weeks

SMILES | neuronal differentiation score
CN1CC[C@@H]2CN3CCc4cccc(c43)[C@@H]2C1 [SDZ SER 082 fumarate] | inactive: 0
NC(N)=Nc1ccc2[nH]c3c(c2c1)C[C@@]1(O)[C@H]2Cc4ccc(O)c5c4[C@@]1(CCN2CC1CC1)[C@H]3O5 [GNTI dihydrochloride] | inactive: 0
O=C1/C(=C/c2ccccc2)C[C@@]2(O)[C@H]3Cc4ccc(O)c5c4[C@@]2(CCN3CC2CC2)[C@H]1O5 [BNTX maleate] | inactive: 0
CNCCc1cnc[nH]1 [N à-Methylhistamine dihydrochloride] | inactive: 0
COc1cc(N)c(Cl)cc1C(=O)NC1CN2CCC1CC2 (stereo not drawn) [Zacopride hydrochloride] | inactive: 0

tested on: ReNCell VM; assay: dopaminergic neuron differentiation score (TH+ cell fraction vs untreated, manual image score) (score (0 to 3)); higher = more TH+ dopaminergic neuron differentiation; conditions: library: LOPAC; 2 uM; 4 weeks; BDNF 10 ng/ml + GDNF 10 ng/ml

SMILES | dopaminergic neuron differentiation score
COc1ccc2c(c1OC)C(=O)OC2C1c2cc3c(cc2CCN1C)OCO3 (single isomer, unassigned; (+)) [(+)-Hydrastine] | inactive: 0
CNC(=O)Oc1ccc2c(c1)[C@]1(C)CCN(C)[C@@H]1N2C [(-)-Physostigmine] | inactive: 0
NCC(O)c1cc(O)c(O)cc1F (stereo not drawn) [6-Fluoronorepinephrine hydrochloride] | inactive: 0
N=C(NCCC[C@H](N)C(=O)O)N[N+](=O)[O-] [NG-Nitro-L-arginine] | inactive: 0
c1ccc(C2(c3ccccc3)CC2C2=NCCN2)cc1 (stereo not drawn) [Cibenzoline succinate] | inactive: 0
CC(C)NP(=O)(NC(C)C)OP(=O)(NC(C)C)NC(C)C [Tetraisopropyl pyrophosphoramide] | inactive: 0
